Data as given in PubChem BioAssay AID504804 (Drosophila RNAi Screening Center, 2011)

Test: 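Fly genes whose loss lessens doxorubicin-driven cell death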 (primary screen)
Cells: Drosophila Kc cells
Knock-down reagent: long dsRNA against Drosophila genes, 0.5 µg dsRNA per well
Duration: 96 h (48 h knock-down, then 48 h drug)
Treatment: doxorubicin 5 µg/ml for 48 h, added 48 h after dsRNA
Read-out: 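Viability measured as cellular ATP by luminescence after 48 h knock-down then 48 h doxorubicin at 5 µg/ml; unnormalised plate counts for each replicate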
Scale: raw ATP luminescence: higher = more viable cells, protection from doxorubicin
Active means: 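Active when both duplicate wells lie at least 2 SD above the plate mean and protection is confirmed by rescreening and independent dsRNAs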
The screen tested about 19,000 reagents; this is a random part of those that have a named target and a result. Over the whole deposit, 47 (0.25%) were called active. 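Signals are raw, not normalised; exact z-scores behind calls not deposited; actives needed confirmation, so some wells reaching 2 SD are inactive.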 Names joined by + are all predicted targets of the reagent.

no.	gene knocked down	amplicon	SD above plate mean	raw ATP luminescence, replicate 1	raw ATP luminescence, replicate 2	Call
1	CG18735	DRSC04312		67710	62903	inactive
2	CG14673 (retired record)	DRSC12259		61893	61783	inactive
3	Cp16 (Chorion protein 16)	DRSC11119		85820	96143	inactive
4	FASN2 (Fatty acid synthase 2)	DRSC00167		2.64e5	2.35e5	inactive
5	FASN2 (Fatty acid synthase 2)	DRSC00610		94573	80050	inactive
6	CG31041	DRSC13951		2.13e5	2.12e5	inactive
7	isoQC (iso Glutaminyl cyclase)	DRSC11790		66070	76113	inactive
8	Ekar (Eye-enriched kainate receptor)	DRSC17161		49400	73240	inactive
9	Fcp3C (Follicle cell protein 3C)	DRSC18665		47050	44860	inactive
10	Ptp99A (Protein tyrosine phosphatase 99A)	DRSC13933		1.68e5	2.33e5	inactive
11	Ptp99A (Protein tyrosine phosphatase 99A)	DRSC13939		2.32e5	2.33e5	inactive
12	Ptp99A (Protein tyrosine phosphatase 99A)	DRSC14319		42980	41490	inactive
13	Ptp99A (Protein tyrosine phosphatase 99A)	DRSC14320		37550	39500	inactive
14	Ptp99A (Protein tyrosine phosphatase 99A)	DRSC16803		46820	36740	inactive
15	CG1360	DRSC06406		46513	79973	inactive
16	Fdh (Formaldehyde dehydrogenase)	DRSC16670		44407	21477	inactive
17	CG12691	DRSC17880		40120	49630	inactive
18	HP1D3csd (Heterochromatin Protein 1D3 chromoshadow domain)	DRSC19548		3.30e5	3.07e5	inactive
19	Acp65Aa (Adult cuticle protein 65Aa)	DRSC09663		78693	79757	inactive
20	CG10481	DRSC02063		39947	43613	inactive
21	CG13630	DRSC14631		42363	42840	inactive
22	CG1024	DRSC12496		64367	56767	inactive
23	CG4716	DRSC06884		85567	73907	inactive
24	CG5096	DRSC02813		49663	67210	inactive
25	Phs (Phaser)	DRSC10827		31480	23173	inactive
26	VhaM9.7-d (Vacuolar H[+] ATPase M9.7 subunit d)	DRSC15028		74090	60230	inactive
27	Sdhaf3 (Succinate dehydrogenase assembly factor 3)	DRSC15020		1.07e5	85860	inactive
28	CG32639	DRSC18972		1.97e5	2.66e5	inactive
29	CG7627	DRSC03065		1.06e5	98290	inactive
30	Secp43 (tRNA Selenocysteine associated protein)	DRSC00454		26660	27913	inactive
31	CG4781	DRSC04488	2 to 3 SD above plate mean	85047	94253	active
32	Cth (Cystathionine gamma-lyase)	DRSC07422		76203	66057	inactive
33	Vps24 (Vacuolar protein sorting 24)	DRSC12332		28010	32533	inactive
34	CG3285	DRSC00589		1.07e5	78473	inactive
35	CG14212	DRSC19568		3.91e5	3.31e5	inactive
36	p130CAS	DRSC07862		1.48e5	30113	inactive
37	p130CAS	DRSC08257		52297	48817	inactive
38	CG11905	DRSC09863		38920	26887	inactive
39	rdo (reduced ocelli)	DRSC02452		79010	53907	inactive
40	Orc1 (Origin recognition complex subunit 1)	DRSC07496		1.65e5	1.96e5	inactive
41	CG17994	DRSC04877		54637	69337	inactive
42	squ (squash)	DRSC01549		2.86e5	2.80e5	inactive
43	svr (silver)	DRSC17293		1.73e5	1.87e5	inactive
44	svr (silver)	DRSC18841		59840	43510	inactive
45	CG7342	DRSC16230		40083	39400	inactive
46	CG30427	DRSC04014		78007	78400	inactive
47	CG30427	DRSC04311		82970	70117	inactive
48	CG30427	DRSC04323		51353	70340	inactive
49	CG6996	DRSC10758		67403	58493	inactive
50	Fbl6 (F-box and leucine-rich repeat protein 6)	DRSC06335		79837	77457	inactive
51	GluProRS (Glutamyl-prolyl-tRNA synthetase)	DRSC14095		63267	43630	inactive
52	CG7126	DRSC16201		82800	89860	inactive
53	jar (jaguar)	DRSC16974		66310	65360	inactive
54	CG13088	DRSC02192		28423	59447	inactive
55	CG42566	DRSC03949		69353	53697	inactive
56	CG13958 (retired record)	DRSC02300		42740	43167	inactive
57	sro (shroud)	DRSC14469		63270	38190	inactive
58	CG1636	DRSC18111		1.99e5	2.81e5	inactive
59	CG33459	DRSC05615		1.54e5	98563	inactive
60	CG2004	DRSC18200		46890	50780	inactive
61	spdi (split discs)	DRSC18488		40840	52060	inactive
62	CCHa2 (CCHamide-2)	DRSC14835		86250	83890	inactive
63	Son (Son RNA binding protein)	DRSC16400		66087	62780	inactive
64	PsGEF (retired record)	DRSC18600		41800	54270	inactive
65	PsGEF (retired record)	DRSC18601		29280	29420	inactive
66	tank	DRSC00461		21560	30557	inactive
67	Ptpmeg (Protein tyrosine phosphatase Meg)	DRSC08684		57620	65387	inactive
68	CG9452	DRSC11075		75783	76757	inactive
69	CG8191 + CG12379	DRSC19451		2.97e5	3.82e5	inactive
70	dnr1 (defense repressor 1)	DRSC03948		1.17e5	94173	inactive
71	dnr1 (defense repressor 1)	DRSC04122		52140	43180	inactive
72	CG13367	DRSC18485		50700	54310	inactive
73	CG13367	DRSC18486		43080	49250	inactive
74	CG17726	DRSC15255		1.71e5	2.08e5	inactive
75	kst (karst)	DRSC08719		35913	35567	inactive
76	CG15468	DRSC18051		53520	51640	inactive
77	Sirt2 (Sirtuin 2)	DRSC15714		51490	53580	inactive
78	CG3699	DRSC18171		51150	21740	inactive
79	CG3699	DRSC18642		68140	49280	inactive
80	CG14770	DRSC17947		49030	70450	inactive
81	twin	DRSC15259		41767	39083	inactive
82	twin	DRSC15831		80590	71600	inactive
83	CG10725	DRSC09788	at least 3 SD above plate mean	72987	72207	active
84	CG13482	DRSC10024		23773	25190	inactive

Not a retest: entries from further up.
no.	gene knocked down	amplicon	SD above plate mean	raw ATP luminescence, replicate 1	raw ATP luminescence, replicate 2	Call
21	CG13630	DRSC14631		42363	42840	inactive
22	CG1024	DRSC12496		64367	56767	inactive
23	CG4716	DRSC06884		85567	73907	inactive
24	CG5096	DRSC02813		49663	67210	inactive
25	Phs (Phaser)	DRSC10827		31480	23173	inactive
26	VhaM9.7-d (Vacuolar H[+] ATPase M9.7 subunit d)	DRSC15028		74090	60230	inactive
27	Sdhaf3 (Succinate dehydrogenase assembly factor 3)	DRSC15020		1.07e5	85860	inactive
